# Patent publication US4997828A, “Method of weight control by low level administration of cobalt protoporphyrin or cobalt mesoporphyrin” (The Rockefeller University, priority 1989, dated 1991)
# Assay: Body weight and naso-anal length of adult male rats after weekly subcutaneous injections (Example 1)
# Assay type: in vivo, Sprague-Dawley rat
# Details: for Naso-anal length: 10 serial doses of CoPP 1 μmol/kg b.w. s.c., n = 6
# Description: Adult male Sprague-Dawley rats (≈250 g) were injected subcutaneously with CoPP 1 μmol/kg b.w. (12 rats) or vehicle (12 rats) on day 0. Thereafter, injections (Vertical arrows in FIG. 1) were repeated weekly until 10 doses had been given. Animals were allowed Purina rat chow and water ad libitum and animal weights were recorded thrice weekly; means are presented in FIG. 1 ( is control and treated animals). On day 71, 6 control rats and 6 CoPP-treated rats were sacrificed, blood collected for hormone determinations and hepatic mitochondrial and microsomal fractions prepared for biochemical assays. These procedures were repeated at day 124 for the remainder of the animals.
# The effects of 10 serial doses of CoPP 1 μmol/kg b.w. on weight,
# *n = 12; for all other parameters, n = 6 animals per treatment.
# **As calculated by Student's Ttest. The only significant changes are in […]
structure (smiles),measurement,setting,value
"C=CC1=C(C)c2cc3[n-]c(cc4nc(cc5[n-]c(cc1n2)c(C)c5CCC(=O)[O-])C(CCC(=O)[O-])=C4C)c(C)c3C=C.[Co+2].[H+].[H+] [CoPP, cobalt protoporphyrin]",Difference in naso-anal length vs control,"CoPP 1 μmol/kg b.w. s.c. weekly, 10 doses",no significant differences
same,Naso-anal length,"Day 71, control 26.6 ± 0.33",25.8 ± 0.11 cm
same,Naso-anal length,"Day 124, control 27 ± 0.22",27 ± 0.11 cm
